Results taken from patent US12527788B2, “Defining RNA-small molecule affinity landscapes enables design of a small molecule inhibitor of an oncogenic non-coding RNA” (University of Florida Research Foundation, Incorporated, priority 2017, dated 2026).

Each compound was assayed on RNA motifs of 3×3 ILL (assay: HiT-StARTS statistical analysis (Zobs) of RNA-seq of 2DCS selection). Conditions: 3×3 ILL selection.
Assay type: binding

| SMILES | Range of Zobs for Binders |
| --- | --- |
| CN1CCN(c2ccc(-c3ccc4nc(-c5cc(C(C)(C)C)c(OCCCC(=O)NCCCN=[N+]=[N-])c(C(C)(C)C)c5)[nH]c4c3)cc2)CC1 [Compound 4] | 7-29 |
| CN1CCN(c2ccc(-c3ccc4nc(-c5ccc(OCCCC(=O)NCCCN=[N+]=[N-])cc5)[nH]c4c3)cc2)CC1 [Compound 1] | 8-72 |
| Cc1cc(-c2nc3ccc(-c4ccc(N5CCN(C)CC5)cc4)cc3[nH]2)cc(C)c1OCCCC(=O)NCCCN=[N+]=[N-] [Compound 2] | 8-44 |
| CC(C)c1cc(-c2nc3ccc(-c4ccc(N5CCN(C)CC5)cc4)cc3[nH]2)cc(C(C)C)c1OCCCC(=O)NCCCN=[N+]=[N-] [Compound 3] | 12-29 |
